Experimental data from PubChem BioAssay AID504834 (National Center for Advancing Translational Sciences (NCATS), 2011).
Out of some 320,000 compounds screened, about 22,000 (6.9%) were called active. The shares of active, inactive and inconclusive entries below differ from those in the screen. Calls follow the shape of the dose curve; as a rule, active = well fitted inhibition curve with a large enough effect; inconclusive = small, poorly fitted or top-dose-only effect, or another doubt; inactive = no such curve, though single readings can be large or run the other way. Potencies of inconclusive entries are doubtful fits and often do not repeat.

assay: Primary qHTS for delayed death inhibitors of the malarial parasite plastid, 96 hour incubation; settings: P. falciparum luciferase reporter growth; series mostly up to 28.7 µM; activity change, negative = inhibition: at the top concentration
Text: The goal of this screen is to discover new antimalarial compounds that act by inhibiting the development of the apicoplast in the malarial parasite Plasmodium falciparum. The biochemical processes that make this organelle essential for erythrocytic stage parasites are not well understood. However, antibiotics such as azithromycin and tetracycline, which target the apicoplast translational machinery, have a potent antimalarial effect.
We have developed a cell-based assay that measures parasite growth based on the expression of an integrated copy of a firefly luciferase reporter. To detect small molecules that cause this "delayed death" phenotype, erythrocytes infected with the luciferase-expressing parasites were incubated with compounds for either one or two generations, corresponding to 48 and 96 hours, respectively. Compounds that inhibit parasite growth in the second generation, but not the first, should be enriched in antimalarials that target the apicoplast. Growth inhibition is detected by a decrease in luciferase activity.
Assay Provider: David Fidock and Eric Ekland, Columbia University
Keywords: NIH Roadmap, MLPCN, MLI, MLSMR, qHTS, NCGC, qHTS, malaria, luciferase, viability
Four microliters of infected erythrocytes (2% hematocrit, 0.05% parasitemia final concentration) in culture medium were dispensed and the plates incubated for 96 hours at 37 C in 5% CO2. Two microliters of luciferase detection reagent was added and luminescence was detected by a ViewLux (PerkinElmer) reader.
% is scaled to controls: 0 for no effect and ±100 for the full control effect; potency is read from the fitted curve at half-maximal effect.

SMILES | Potency | activity change, negative = inhibition
CN1C(=O)N(C)C2(c3ccccc3)NC(=O)NC12c1ccccc1 (centres undefined) | inconclusive: 10.4 µM [inhibitor, single point] | –
Cc1csc(NC(=O)c2c(-c3c(F)cccc3Cl)noc2C)n1 | inconclusive: 18.5 µM [inhibitor, single point] | –
CCC(=O)Nc1ccccc1-c1nc2ccccc2[nH]c1=O | inconclusive: 13.1 µM [inhibitor, single point] | –
Cc1cc(C)c(NS(=O)(=O)c2ccc3c(c2)NC(=O)CCS3)c(C)c1 | active: 8.28 µM | –
Cc1ccc2c(cnn2C(=O)CCC(=O)NCc2cccc(Cl)c2)c1 | – | inactive: 40%
Cc1cccc(NC(=O)C(CC(C)C)NC(=O)C2CCC(C)CC2)n1 (centres undefined) | inconclusive: 0.37 µM [inhibitor, full curve, poor fit] | –
O=C(OC1CCN(CCCl)CC1)C(c1ccccc1)c1ccccc1 | inconclusive: 18.5 µM [inhibitor, single point] | –
O=C(CCN1C(=O)/C(=C/c2ccc(Cl)cc2)SC1=S)Nc1cccc(C(=O)O)c1 | inconclusive: 11.7 µM [inhibitor, partial curve] | –
COc1ccc(CCNC(=O)COc2ccc(N(C)S(=O)(=O)c3ccc(Cl)cc3)cc2)cc1 | inconclusive: 11.7 µM [inhibitor, single point] | –
C=C1c2cc(CC)ccc2NC(=O)N1c1ccc(C)cc1 | inconclusive: 20.8 µM [inhibitor, partial curve, poor fit] | –
CC1CCN(c2ccc(C(=O)NCc3ccc4c(c3)OCO4)cc2[N+](=O)[O-])CC1 | inconclusive: 11.7 µM [inhibitor, partial curve, poor fit] | –
CCCC(=O)Nc1ccc(-c2ccc(NC(=O)CCC)cc2)cc1 | – | inactive: 41.2%
CCOc1ccc2[nH]c3c(NCCCOC)ncnc3c2c1 | inconclusive: 18.5 µM [inhibitor, single point] | –
O=C(c1cccc(-n2cnnn2)c1)N1CC=C(c2ccccc2)CC1 | inconclusive: 13.1 µM [inhibitor, single point] | –
O=C(COc1ccc2ccc(=O)oc2c1)N1CCc2ccccc21 | – | inactive: 0.671%
COc1ccc2cc1Oc1ccc(cc1)CC1c3c(cc4c(c3Oc3cc5c(cc3OC)CCN(C)C5C2)OCO4)CCN1C (centres undefined) | active: 5.36 µM | –
Cc1ccc2c(CSc3nc4ccccc4c(=O)n3CCCO)cc(=O)oc2c1C | inconclusive: 18.5 µM [inhibitor, single point] | –
Cc1ccc(NC(=O)Cn2cccc2)c(C)c1 | active: 13.1 µM | –
Cc1ccc(/C=C/C(=O)N2CC(C)CC(C)C2)o1 (centres undefined) | – | inactive: 50.5%
Cc1nn(-c2ccccc2)c2nc(-c3ccccc3)cc(C(=O)N3CCOCC3)c12 | active: 2.08 µM | –
CCn1c(=O)cc(OCC(=O)N(C)c2ccccc2F)c2ccccc21 | inconclusive: 9.28 µM [inhibitor, partial curve, poor fit] | –
COc1ccc(/C(C)=N/OC/C(O)=C(\C#N)c2nc3ccccc3[nH]2)c(OC)c1 | inconclusive: 4.15 µM [inhibitor, partial curve, poor fit] | –
CCCN(CC(=O)Nc1ccccc1OC)C(=O)c1ccc2c(c1)NC(=O)C(C)S2 (centres undefined) | inconclusive: 13.1 µM [inhibitor, single point] | –

SMILES | Potency | activity change, negative = inhibition
COc1ccccc1-n1cc(CN2CCN(C3CCCCC3)C(CCO)C2)cn1 (centres undefined) | inconclusive: 11.7 µM [inhibitor, partial curve, poor fit] | –
O=C(NCc1ccccn1)C(=O)NN=C1CCCCCCC1 | inconclusive: 4.15 µM [inhibitor, single point] | –
O=C(Cn1nc([N+](=O)[O-])nc1Br)NC(c1ccccc1)c1ccccc1 | inconclusive: 4.15 µM [inhibitor, single point] | –
CC(C)[C@@H]1NC(=O)c2cc([N+](=O)[O-])cc(I)c2NCCC[C@@H](C(N)=O)NC(=O)[C@H](CO)NC1=O | inconclusive: 18.5 µM [inhibitor, single point] | –
O=C(O)c1ccc(Oc2ccc(C(F)(F)F)cn2)cc1 | – | inactive: 16.1%
CC(NC(=O)c1ccco1)C(=O)N1CCN(C(c2ccccc2)c2ccccc2)CC1 (centres undefined) | – | inactive: 30.5%
COc1ccc(NC(=O)C2CC(=O)OC23CCCCC3)cc1 (centres undefined) | inconclusive: 13.1 µM [inhibitor, single point] | –
COc1ccc(C2/C(=C(/O)c3ccccc3)C(=O)C(=O)N2CO)cc1 (centres undefined) | inconclusive: 18.5 µM [inhibitor, single point] | –
CC(=O)Nc1ccc(S(=O)(=O)N2CCN(c3ccc([N+](=O)[O-])cc3)CC2)cc1 | – | inactive: -26.9%
Cc1ccc[n+](CC(=O)c2ccc(NC(=O)c3ccccc3)cc2)c1 | inconclusive: 3.7 µM [inhibitor, partial curve, poor fit] | –
CCOC(=O)NC1c2ccccc2Oc2ccccc21 | inconclusive: 0.0047 µM [inhibitor, partial curve, poor fit] | –
CCOc1ccc(S(=O)(=O)Nc2ccc(C(=O)NCc3ccncc3)cc2)cc1 | inconclusive: 0.586 µM [inhibitor, full curve, poor fit] | –
COc1ccc(Cl)cc1NC(=O)c1[nH]nc(OC)c1[N+](=O)[O-] | – | inactive: -10%
COC(=O)CCCC(=O)N1CCC(n2nccc2NC(=O)CCOc2ccccc2)CC1 | inconclusive: 14.7 µM [inhibitor, single point] | –
COc1ccc(C2=CC(c3ccco3)n3ncnc3N2)cc1 (centres undefined) | inconclusive: 18.5 µM [inhibitor, single point] | –
Cc1nc(NC(=O)c2ccccc2)sc1-c1csc(N)n1 | – | inactive: -2.12%
O=C1CCC(C(=O)O)N1 (centres undefined) | – | inactive: 32.8%
O=C(/C=C/Nc1ccccc1Oc1ccccc1)c1ccco1 | inconclusive: 1.17 µM [inhibitor, partial curve, poor fit] | –
Cc1cc(SCC(=O)c2cccs2)nc2ccccc12 | – | inactive: -7.09%
O=C(Cn1nnc2ccccc2c1=O)Nc1cc(C(F)(F)F)ccc1N1CCOCC1 | inconclusive: 18.5 µM [inhibitor, single point] | –
Cc1ccccc1-n1c(C)cc(/C=N/NC(=O)c2ccncc2)c1C | inconclusive: 16.5 µM [inhibitor, partial curve, poor fit] | –
CSc1ccccc1C(=O)Nc1cc(C)ccc1C | inconclusive: 11.7 µM [inhibitor, single point] | –
O=C(C[n+]1cccc(Br)c1)c1ccccc1 | – | inactive: 4.15%

SMILES | Potency | activity change, negative = inhibition
Cc1ccc(C(=O)Nc2cccc(C(F)(F)F)c2)cc1Nc1cnccn1 | inconclusive: 18.5 µM [inhibitor, single point] | –
CC(c1nnc(Sc2nnnn2-c2ccccc2)n1-c1ccc(F)cc1)N(C)C (centres undefined) | inconclusive: 18.5 µM [inhibitor, single point] | –
O=C(Nc1ccc2ccccc2c1)c1cn(-c2ccccc2)nc1-c1cccs1 | active: 13.1 µM | –
Cc1cc(C)cc(OCC(=O)OC(C)C(=O)Nc2c(C)n(C)n(-c3ccccc3)c2=O)c1 (centres undefined) | – | inactive: 1.19%
COc1ccc(CN2CCNC(=O)C2CC(=O)NC2CCCC2)c(OC)c1 (centres undefined) | – | inactive: -11.2%
CCc1nc(SCc2nc3ccccc3[nH]2)c2oc3ccccc3c2n1 | inconclusive: 10.4 µM [inhibitor, single point] | –
O=C(NCC1CCCO1)c1cc(S(=O)(=O)Nc2ccc(Br)cc2)ccc1Cl (centres undefined) | – | inactive: 32.8%
Cc1cc(C(=O)CSc2ccc(Cl)cc2)cc(C)c1OC(=S)N(C)C | inconclusive: 4.65 µM [inhibitor, partial curve, poor fit] | –
CCCN(CCC)CCNC(=O)C1CC(=O)N(c2ccc(OC)cc2)C1c1ccc(OC)cc1 (centres undefined) | active: 1.65 µM | –
O=C(N/N=C/c1ccccc1OC(F)F)c1cc(-c2ccncc2)nc2ccccc12 | inconclusive: 10.4 µM [inhibitor, single point] | –
NCCCCc1ccc2ccc3cccc4ccc1c2c34 | inconclusive: 16.5 µM [inhibitor, single point] | –
COc1ccc(C(=O)N/C(=C\c2ccc3c(c2)OCO3)C(=O)Nc2cccc(C(=O)O)c2)cc1 | inconclusive: 3.29 µM [inhibitor, partial curve, poor fit] | –
CCCC(=O)N1CCN(c2ccc(NC(=O)c3sc4ccccc4c3Cl)cc2)CC1 | active: 4.65 µM | –
NNc1nc2ccccc2c(=O)n1Cc1ccccc1 | inconclusive: 9.28 µM [inhibitor, partial curve] | –
COc1cc(NC(=S)N2CCN(Cc3ccccc3)CC2)cc(OC)c1 | inconclusive: 2.08 µM [inhibitor, single point] | –
COc1ccc(CNC(=O)c2ccc3c(c2)N(C)CCS3)cc1 | inconclusive: 13.1 µM [inhibitor, single point] | –
O=c1c2cccc3c2c(nn1-c1ccccc1)-c1ccccc1-3 | inconclusive: 8.28 µM [inhibitor, partial curve, poor fit] | –
O=C(CCNS(=O)(=O)c1ccccc1C(F)(F)F)NCCCSc1ccccc1 | inconclusive: 10.4 µM [inhibitor, single point] | –
CSc1ccccc1NC(=O)CN(C)S(=O)(=O)c1ccc(F)cc1 | inconclusive: 0.586 µM [inhibitor, partial curve, poor fit] | –
O=C1NCC(O)=C1C=Nc1ccccc1O | inconclusive: 18.5 µM [inhibitor, single point] | –
C=CCN1C(=O)C2(OCCO2)c2cc(C)ccc21 | – | inactive: 13.3%
COc1ccc(C2C(C#N)=C(N)N(N(C)C)C3=C2C(=O)CCC3)cc1 (centres undefined) | active: 2.33 µM | –
CCN(C(=O)c1cc2c(=O)[nH]c3ccc(C)cc3c2s1)c1ccc(OC)cc1 | active: 5.22 µM | –
